Results taken from patent publication US20100221823A1, “METHOD FOR CULTURING MAMMALIAN CELLS TO IMPROVE RECOMBINANT PROTEIN PRODUCTION” (Amgen Inc., priority 2007, published 2010).
Some results were stated once for a whole list of compounds, not compound by compound.

Test system: CHO cell line producing a recombinant IgG2 monoclonal antibody
Experiment: Batch culture in serum-free DMEM/F12 with supplemental polyamines: viable cell density and viability
Format: cell-based, Chinese hamster
Conditions: 3 days, 100-1000 μM putrescine, 10-50 μM spermidine or 10-50 μM spermine, range over all supplemented cultures
Procedure: To test the effect of high concentration polyamine media formulations on cell culture performance a CHO cell line producing a recombinant IgG2 monoclonal antibody was seeded at 2.5×10^5 cells/ml in serum-free DMEM/F12 (SAFC, Lenexa, Kans.). DMEM/F12 contains 503 nM putrescine as a component of the commercial formulation. […] Cells were maintained in suspension culture for three days at 36° C. in 5% CO2. Total cell density and viable cell density were measured using a Guava Easy-Cyte™ flow cytometer and Guava Viacount® Flex reagent (Hayward, Calif.) according to manufacture's instructions.
Following three days culture in the polyamine-supplemented-DMEM/F12 media, viable cell density and culture viability were measured, see FIGS. 1a and 1b. Mean viability is presented as percent of viable cells and viable cell density is presented as number of cells/ml.

NCCCCNCCCN [spermidine, spermidine tetrachdrochloride]
Cell viability increase compared to the unsupplemented control: 5-20% | Viable cell density increase compared to the unsupplemented control: 27-49%
